Here are results for 2 substances from publication PMC12709188.

Sequences of proteins named here, by UniProt entry; tags and fusion partners are left off. A change or cut given only in a name is not applied to a line headed by its entry.
UniProt A0QSL8: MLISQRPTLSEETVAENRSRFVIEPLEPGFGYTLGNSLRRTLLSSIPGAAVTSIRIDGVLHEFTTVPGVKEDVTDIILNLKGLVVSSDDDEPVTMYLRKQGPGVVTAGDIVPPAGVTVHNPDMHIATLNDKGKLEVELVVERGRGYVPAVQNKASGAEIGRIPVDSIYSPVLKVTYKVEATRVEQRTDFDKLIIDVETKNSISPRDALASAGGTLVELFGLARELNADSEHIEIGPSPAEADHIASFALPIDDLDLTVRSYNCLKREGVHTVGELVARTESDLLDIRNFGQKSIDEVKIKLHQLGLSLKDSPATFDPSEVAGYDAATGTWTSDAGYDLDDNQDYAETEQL
UniProt A0QWV9: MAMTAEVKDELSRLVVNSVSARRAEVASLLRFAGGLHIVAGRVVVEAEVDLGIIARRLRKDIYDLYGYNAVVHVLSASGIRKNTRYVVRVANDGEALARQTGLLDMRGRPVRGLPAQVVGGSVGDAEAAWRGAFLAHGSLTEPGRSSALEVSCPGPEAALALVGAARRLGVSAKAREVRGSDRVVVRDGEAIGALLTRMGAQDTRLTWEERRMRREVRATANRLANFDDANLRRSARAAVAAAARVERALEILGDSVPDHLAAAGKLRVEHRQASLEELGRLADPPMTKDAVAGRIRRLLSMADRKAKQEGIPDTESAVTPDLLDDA

No constants are given. Whether binding was seen depends on the method and setting. In cells and extracts the contact can be indirect. Some results given as binding are weak or reduced against the parent protein; the word gives no strength. Sequences can lack the tags named with a protein.

The target in assay [1] is T1, CarD–FLAG (additional copy of FLAG-tagged CarD under an ATc-inducible promoter) (M. smegmatis) (UniProt A0R561).
T1 sequence: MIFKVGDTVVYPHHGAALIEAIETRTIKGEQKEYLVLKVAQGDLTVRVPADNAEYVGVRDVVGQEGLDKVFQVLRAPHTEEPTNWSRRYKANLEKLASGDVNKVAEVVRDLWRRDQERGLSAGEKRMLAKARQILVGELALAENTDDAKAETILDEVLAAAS
Put plainly: co-IP; FLAG pull-down: M. smegmatis lysates (2–4 mg protein; exponential and stationary phase; for RNAP-FLAG also after crsL knock-down) with M2 anti-FLAG resin 16–18 h at 4°C in 20 mM Tris–HCl pH 7.9, 150 mM KCl, 1 mM MgCl2; SDS–PAGE, silver stain, bands identified by MALDI-FTICR MS and/or western blot.

Assay [2] concerns the target T2, CarD–gFLAG (FLAG-tag sequence inserted into the M. smegmatis genome at the carD locus) (M. smegmatis) (UniProt A0R561).
T2 sequence: T1 sequence
Described as above.

On to “DNA-dependent RNA polymerase (RNAP) (from UniProt A0QSL8 1-350; P60281 1-1169; A0QS66 1-1317; A0QWT1 1-107) (complex)”, for which the binding entry in assay [1] was “binds”.

With WhiA (from UniProt A0QWV9 1-327), in assay [2], the binding entry was “binds”.
